According to publication PMC5700522:
Where a protein sequence is shown, tags need not be part of it.

Assays:
Experiment in all cases: EMSA
[1] = biological target: T1, PoxCxrA17-150 (Penicillium oxalicum HP7-1) (UniProt A0A2H4WV05); conditions: unlabelled probe competes; 20 mM Tris-HCl pH 8.0, 50 mM KCl, 5% glycerol, 1 mM DTT, 0.1 mg/mL BSA; 40 ng FAM probe, 0-4.8 ug protein; 4% PAGE in TAE; temperature not stated; recombinant protein; residues 17-150; protein details: TRX-His-S (pET-32a(+)); label: FAM on reverse primer; probe letters rebuilt from the primers and the genome
T1 sequence (looked up): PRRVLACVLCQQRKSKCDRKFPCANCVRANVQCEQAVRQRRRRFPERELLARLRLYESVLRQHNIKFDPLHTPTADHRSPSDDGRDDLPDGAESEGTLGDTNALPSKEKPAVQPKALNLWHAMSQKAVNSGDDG

[2] = biological target: T2, PoxCxrB181-330 (Penicillium oxalicum HP7-1) (UniProt A0A2H4WUZ7); conditions: 20 mM Tris-HCl pH 8.0, 50 mM KCl, 5% glycerol, 1 mM DTT, 0.1 mg/mL BSA, 40 ng FAM probe, 0-4.8 ug protein, 4% PAGE in TAE, temperature not stated, recombinant protein, protein details: TRX-His-S (pET-32a(+)), label: FAM on reverse primer, probe letters rebuilt from the primers and the genome
T2 sequence (looked up, limits assumed): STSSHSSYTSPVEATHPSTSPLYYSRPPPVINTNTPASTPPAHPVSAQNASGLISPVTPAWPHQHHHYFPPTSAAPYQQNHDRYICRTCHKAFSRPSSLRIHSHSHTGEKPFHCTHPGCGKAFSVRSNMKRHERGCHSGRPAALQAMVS

[3] = biological target: T3, PoxNsdD335-494 (Penicillium oxalicum HP7-1) (UniProt A0A2H4WUZ6); conditions: 20 mM Tris-HCl pH 8.0, 50 mM KCl, 5% glycerol, 1 mM DTT, 0.1 mg/mL BSA, 40 ng FAM probe, 0-4.8 ug protein, 4% PAGE in TAE, temperature not stated, recombinant protein, residues 335-494, protein details: TRX-His-S (pET-32a(+)), label: FAM on reverse primer, probe letters rebuilt from the primers and the genome
T3 sequence (looked up): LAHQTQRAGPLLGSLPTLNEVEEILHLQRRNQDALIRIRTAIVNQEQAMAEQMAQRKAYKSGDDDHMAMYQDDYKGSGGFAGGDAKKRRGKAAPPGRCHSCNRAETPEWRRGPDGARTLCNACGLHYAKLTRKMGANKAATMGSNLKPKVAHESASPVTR

Sequence | binding result [1] | binding result ([2]; unlabelled probe competes) | binding result ([3]; unlabelled probe competes) | other results
AGGTTCAAGTTGGCTTACCAGCTGTACCATTGACTATCAATCATCTGCTCGGATGCACTACGATATACGGTACCGCTACTTTGGGCTCCAGTGCTACTACGACGAGGCCAAATACACATGGGTAGGATTCAAACGGTAAAAATGGAGACGAGGCGTCCAGTCAGTCCGACCTGCTGAATCCCCAACTGATCGTGCGGTTTTCCTTCTCGGGAAGTCGACGATCCTTGCCGTTTCTCTGGTGTGGTCTCCACATCTTCTGCGTGTTTCTCCCCGCAAGAAAGGCAATTACAGGTGAGGAGTCCAAGGTCAGGGTTCAGTTCCTGACATCAAAAAAGGAAATTACGTGCAATAGCAATCAATTCCCCCCACACCCCCCACCAGACTGACTAGATGATCAGTACCCCTTTCATCGCTTTAAATACAGCTCCGTCTCTCCTCTGCTCTCTCAGAAGGACTAATCTTTTTTCAGGCCCTTCAGCGCAGAGTTGTGTCCCAGCTTCGCCTTTTGCAGAACAACCAAGGGCTGTGGACGAATCCATCCTGTTCAGTCGTCCTTTGACTTTCGAGGAATTGCCATTGAACAAGCGTCCGTTCATCTG (double strand) [POX06835/Bgl3A promoter (CxrA and CxrB probe)] | binds | binds |  | 
CCTCGGTCCGCATTTGGCAATTGTCCGTGTACAAGCTTTTCGGGTTCCACATCCGTGGCGGGTGACCCGAGGGTTTGATGCTTGGAGAGGTATTTTCGGCTCTTCAGGACACGCAGGAGGCCCATCACTCCCTGGATCGTATGGAGTTTGATGGACAGGTGAGATGAGATGGAAGCCCTGCAGAAGCCCGGTGGGGGACCCCACCTTTCAGGGTTCTTTAGGCTGTTTCAGAGGCCACAGAAGGGACAGGATCAATGATCTTAGTAAGATTGATGGCGGTTTTCTTGTTTCGACTGCTGTTTCAAAGACAGACATGCAGGCATTCGGGTTAATGGGCTCAATTTAAGGCTATTTGCTTGTCCCGATCGTGTAAGCACTAGCCAAGGGCTTAGCAGTGAAGGCCAAGAAAATCAGCATATAAGATGGGTTTGGTCTCGATGTTCTGATGTGTCTCAGGCATATACGACTGTTTTTGTTTTTTTGGTTCAGAGCTCAGACTACTCGACACATTCGAACCACATCGTTCCTTTGAATAAAACA (double strand) [POX06783/Xyn11A promoter] | binds | binds | binds | 
CGGTCACATTTGCTCTTGCGTTGCTGACACAACACGCATGCCAGCACGCGTCGGGGCTTGACGGTGGTGGCGGTCGGATCGGATGTAGAGATCGGCGTGGTCATGGCCGACGACTTGAGAAACTATTGATCCAGTTGCAAGTGATTAAGTGATTGACTACGGGATAGAAGAGTTGCTCCTGAGTCCGAGTGCCCGAAGCCCGAGGATTTTGGGCGGAAAAAAAAAGGAAAGAAAGGAAGAAAGAATGAATGAAAGGGCAAGTGTACCATAGAGTGTGGGGGCGGGGGGACAGGCGGGTTTTAGAA (double strand) [PoxCxrA promoter (CxrB probe)] |  |  |  | binding result [2]: binds
CGGTCACATTTGCTCTTGCGTTGCTGACACAACACGCATGCCAGCACGCGTCGGGGCTTGACGGTGGTGGCGGTCGGATCGGATGTAGAGATCGGCGTGGTCATGGCCGACGACTTGAGAAACTATTGATCCAGTTGCAAGTGATTAAGTGATTGACTACGGGATAGAAGAGTTGCTCCTGAGTCCGAGTGCCCGAAGCCCGAGGATTTTGGGCGGAAAAAAAAAGGAAAGAAAGGAAGAAAGAATGAATGAAAGGGCAAGTGTACCATAGAGTGTGGGGGCGGGGGGACAGGCGGGTTTTAGAAAGACCGACGAACCACGTTTGCATCCTGGTACTCGCACTTTCTAACCCCCGATCACTGCAGTCGCGAACTTGCTAATCCCCGGCTGGATGGCCAGCTTCTTCGATATGCTGCTACACAGTGCGAGATCGTCCAGCCATGTTTGCCCTCCCGATAGGCCCCTTTATAAGCCAGAGCTTTCCTCCTGATCTCCCCTGGGTTAAAAAAGGACTTTCCTTGTGCATTGGTGACCGATCGATAGCTGCTTGAGCTGTGCCGCCCTGTATTTCCACAATGCCTTCATCACGCA (double strand) [PoxCxrA promoter (NsdD probe)] |  |  |  | binding result [3]: binds
GGATTCAAACGGTAAAAATGGAGACGAGGCGTCCAGTCAGTCCGACCTGCTGAATCCCCAACTGATCGTGCGGTTTTCCTTCTCGGGAAGTCGACGATCCTTGCCGTTTCTCTGGTGTGGTCTCCACATCTTCTGCGTGTTTCTCCCCGCAAGAAAGGCAATTACAGGTGAGGAGTCCAAGGTCAGGGTTCAGTTCCTGACATCAAAAAAGGAAATTACGTGCAATAGCAATCAATTCCCCCCACACCCCCCACCAGACTGACTAGATGATCAGTACCCCTTTCATCGCTTTAAATACAGCTCCGTCTCTCCTCTGCTCTCTCAGAAGGACTAATCTTTTTTCAGGCCCTTCAGCGCAGAGTTGTGTCCCAGCTTCGCCTTTTGCAGAACAACCAAGGGCTGTGGACGAATCCATCCTGTTCAGTCGTCCTTTGACTTTCGAGGAATTGCCATTGAACAAGCGTCCGTTCATCTG (double strand) [POX06835/Bgl3A promoter (NsdD probe)] |  |  | binds | 
TGGCAGACGCAGTCACGCTAGTGAGGATTCAAAAGCACGTGTGACTTATTCAGCGATGCAACTTCCGGCTTCACCCTCGGCCGGGGTCCCATTTCCGTGTCTAATGCAGCCATTTGCGACTCTTCAGTGCTCGATCTGACCATTTGACCCCAGTGGCGCTGCAGAATAGGTCTGTGCTTGACCTGATACATGGACCCACGCTCAAGTTCATGTCTGCAGAATTCTCCTGAATGGATGAGGATCTGCTCGGTTGAATCTCCGGTCAGAAACCGGACAGAGGCACAGTTGCTGTGGAGTCTCTTGGCCGGTTAGGAGTGCTATAAGATGGCGACAGAAGTCGGCCGAGGAGGAAATTCTCGTTTCCATCCACCGAGTCTGCATACATTGGATTTCGAGTTGTCAAAATGAGATACGATTTGATTCTTGCCGCCGGCGCCACTCTGGCACTGGCCGTGCCCCAGGGCATCTCCAAGCGGGCCGGAGGCTTTGTCTGTAAGTTG (double strand) [POX01166/Cel5B promoter (CxrB and NsdD probe)] |  | binds | binds | 
